Patent US20040102610A1 (Genentech, published 2004)
These are yes or no findings as the source states them, for the method shown. Some binding calls cover weakened binding; strength is not graded here. Where a sequence is shown, tags or fusion partners need not be part of it.

Amino acid sequences for entries named in this document (tags omitted). A change or cut given only in a name is not applied to a line headed by its entry.
UniProt Q9NRP7: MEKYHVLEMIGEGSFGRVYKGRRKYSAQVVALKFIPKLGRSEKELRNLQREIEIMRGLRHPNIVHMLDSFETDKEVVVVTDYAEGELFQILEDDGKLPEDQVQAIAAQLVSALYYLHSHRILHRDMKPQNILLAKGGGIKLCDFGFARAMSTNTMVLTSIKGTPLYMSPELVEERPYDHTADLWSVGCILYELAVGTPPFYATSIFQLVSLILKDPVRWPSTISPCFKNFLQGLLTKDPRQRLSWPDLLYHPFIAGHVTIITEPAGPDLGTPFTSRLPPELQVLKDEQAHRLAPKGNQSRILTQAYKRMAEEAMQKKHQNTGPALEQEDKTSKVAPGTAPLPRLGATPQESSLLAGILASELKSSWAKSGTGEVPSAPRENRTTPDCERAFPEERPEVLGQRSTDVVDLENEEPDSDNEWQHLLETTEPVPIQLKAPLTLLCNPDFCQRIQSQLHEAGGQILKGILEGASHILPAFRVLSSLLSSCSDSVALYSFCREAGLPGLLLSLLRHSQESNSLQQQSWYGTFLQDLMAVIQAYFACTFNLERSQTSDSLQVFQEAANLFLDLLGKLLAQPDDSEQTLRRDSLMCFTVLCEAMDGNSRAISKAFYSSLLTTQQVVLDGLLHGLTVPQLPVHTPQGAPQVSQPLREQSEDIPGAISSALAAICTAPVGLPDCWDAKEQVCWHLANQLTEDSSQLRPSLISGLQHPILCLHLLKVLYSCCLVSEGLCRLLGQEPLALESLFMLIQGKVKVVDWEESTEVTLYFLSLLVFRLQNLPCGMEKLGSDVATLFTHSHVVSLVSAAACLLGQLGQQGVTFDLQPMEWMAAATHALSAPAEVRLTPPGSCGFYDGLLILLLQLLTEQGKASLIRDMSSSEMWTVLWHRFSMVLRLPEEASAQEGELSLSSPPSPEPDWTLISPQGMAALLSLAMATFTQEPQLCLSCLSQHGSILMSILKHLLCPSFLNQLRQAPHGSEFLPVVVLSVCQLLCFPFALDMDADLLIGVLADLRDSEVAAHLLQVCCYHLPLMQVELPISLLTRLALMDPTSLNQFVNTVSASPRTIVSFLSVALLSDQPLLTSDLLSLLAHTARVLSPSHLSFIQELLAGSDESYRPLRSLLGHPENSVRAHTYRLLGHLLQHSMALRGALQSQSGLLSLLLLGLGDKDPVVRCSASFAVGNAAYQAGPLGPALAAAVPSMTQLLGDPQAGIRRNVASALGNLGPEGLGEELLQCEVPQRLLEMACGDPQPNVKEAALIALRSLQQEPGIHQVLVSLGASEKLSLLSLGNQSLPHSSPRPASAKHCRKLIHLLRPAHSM

What was measured:
hSu(fu) C-Myc (human) [1] = target: T1, hSu(fu) C-Myc (human) (UniProt Q9UMX1); experiment: anti-Myc IP of hSu(fu) C-Myc from co-transfected 293 cells, immunoblot (FIG. 15B)
T1 sequence (looked up): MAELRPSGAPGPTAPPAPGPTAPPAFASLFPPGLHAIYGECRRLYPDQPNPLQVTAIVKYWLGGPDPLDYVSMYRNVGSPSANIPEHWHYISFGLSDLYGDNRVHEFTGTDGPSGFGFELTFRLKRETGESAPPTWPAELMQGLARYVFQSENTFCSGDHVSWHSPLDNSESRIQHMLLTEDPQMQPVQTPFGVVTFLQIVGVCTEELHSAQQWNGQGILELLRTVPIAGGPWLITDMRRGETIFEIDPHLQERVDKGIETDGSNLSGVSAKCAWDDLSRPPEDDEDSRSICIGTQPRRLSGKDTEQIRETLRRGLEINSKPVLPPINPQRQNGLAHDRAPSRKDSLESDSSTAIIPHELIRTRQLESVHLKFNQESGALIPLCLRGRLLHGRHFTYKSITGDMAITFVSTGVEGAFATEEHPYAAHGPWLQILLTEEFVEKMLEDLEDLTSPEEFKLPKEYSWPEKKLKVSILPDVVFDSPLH

hSu(fu) C-Myc (human) [2] = target: T1, hSu(fu) C-Myc (human); experiment: 293 cells, anti-Flag IP, immunoblot
hSu(fu) C-Myc (human) [3] = target: T1, hSu(fu) C-Myc (human); experiment: co-transfection in 293 cells, anti-Flag IP, immunoblot
hSu(fu) C-Flag (human) [4] = target: T2, hSu(fu) C-Flag (human) (UniProt Q9UMX1); experiment: 293 cells, anti-Flag IP, immunoblot
T2 sequence (looked up): T1 sequence (looked up)

hSu(fu) C-Flag (human) [5] = target: T2, hSu(fu) C-Flag (human); experiment: co-transfection in 293 cells, anti-Flag IP, immunoblot

## hFu ΔC (from UniProt Q9NRP7 1-823) (enzyme)
hSu(fu) C-Myc (human) [1]
  binding: binds

## hfused C-Flag (from UniProt Q9NRP7 1-1315) (enzyme)
hSu(fu) C-Myc (human) [2]
  binding: binds
hSu(fu) C-Myc (human) [3]
  binding: binds

## human fused (from UniProt Q9NRP7 1-1315) (enzyme)
hSu(fu) C-Flag (human) [4]
  binding: binds
hSu(fu) C-Flag (human) [5]
  binding: binds
